Measurements reported in the supplement of paper PMC10849652.
Some of the results follow.

Sequences of proteins named here, by UniProt entry; tags and fusion partners are left off. A change or cut given only in a name is not applied to a line headed by its entry.
UniProt Q9ULC4: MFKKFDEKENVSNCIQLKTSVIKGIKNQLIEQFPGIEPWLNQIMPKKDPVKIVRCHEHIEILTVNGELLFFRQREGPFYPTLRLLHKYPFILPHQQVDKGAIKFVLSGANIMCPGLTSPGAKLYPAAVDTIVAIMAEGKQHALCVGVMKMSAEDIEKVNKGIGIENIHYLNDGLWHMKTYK
UniProt Q8N6Q8: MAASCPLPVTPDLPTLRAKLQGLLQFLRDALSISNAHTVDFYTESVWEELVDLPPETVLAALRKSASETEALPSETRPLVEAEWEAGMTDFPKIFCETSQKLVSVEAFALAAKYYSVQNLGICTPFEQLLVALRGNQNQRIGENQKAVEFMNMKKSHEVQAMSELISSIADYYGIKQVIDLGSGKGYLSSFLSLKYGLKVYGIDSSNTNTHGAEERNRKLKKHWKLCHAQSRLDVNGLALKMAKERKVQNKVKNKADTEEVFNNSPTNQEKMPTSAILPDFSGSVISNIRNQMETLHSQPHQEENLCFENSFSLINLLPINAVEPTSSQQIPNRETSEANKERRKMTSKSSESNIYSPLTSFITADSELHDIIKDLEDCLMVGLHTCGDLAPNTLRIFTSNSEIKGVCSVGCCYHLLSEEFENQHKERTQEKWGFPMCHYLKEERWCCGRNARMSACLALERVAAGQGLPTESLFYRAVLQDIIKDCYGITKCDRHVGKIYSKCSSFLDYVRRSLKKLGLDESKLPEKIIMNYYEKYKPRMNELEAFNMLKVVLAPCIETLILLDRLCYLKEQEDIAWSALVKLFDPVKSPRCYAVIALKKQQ
UniProt Q96G25: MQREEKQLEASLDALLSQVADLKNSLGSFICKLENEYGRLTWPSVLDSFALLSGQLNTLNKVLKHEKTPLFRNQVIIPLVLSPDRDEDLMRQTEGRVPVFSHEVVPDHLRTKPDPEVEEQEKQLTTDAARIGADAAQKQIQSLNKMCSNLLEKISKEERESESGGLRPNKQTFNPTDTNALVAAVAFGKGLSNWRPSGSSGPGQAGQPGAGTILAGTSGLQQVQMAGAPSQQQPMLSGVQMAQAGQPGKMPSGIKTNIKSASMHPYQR
UniProt Q08431: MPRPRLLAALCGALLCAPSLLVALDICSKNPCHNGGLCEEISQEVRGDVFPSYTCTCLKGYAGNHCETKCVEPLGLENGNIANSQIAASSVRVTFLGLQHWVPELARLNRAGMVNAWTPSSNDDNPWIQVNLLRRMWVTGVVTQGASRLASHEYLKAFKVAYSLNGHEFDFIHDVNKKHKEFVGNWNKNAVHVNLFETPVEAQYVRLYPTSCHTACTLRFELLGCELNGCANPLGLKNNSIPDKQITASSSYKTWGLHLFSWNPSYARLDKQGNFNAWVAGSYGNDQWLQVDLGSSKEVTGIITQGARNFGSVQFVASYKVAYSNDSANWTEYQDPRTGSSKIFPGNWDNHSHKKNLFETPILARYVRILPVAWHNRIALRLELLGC
UniProt Q8IWA4: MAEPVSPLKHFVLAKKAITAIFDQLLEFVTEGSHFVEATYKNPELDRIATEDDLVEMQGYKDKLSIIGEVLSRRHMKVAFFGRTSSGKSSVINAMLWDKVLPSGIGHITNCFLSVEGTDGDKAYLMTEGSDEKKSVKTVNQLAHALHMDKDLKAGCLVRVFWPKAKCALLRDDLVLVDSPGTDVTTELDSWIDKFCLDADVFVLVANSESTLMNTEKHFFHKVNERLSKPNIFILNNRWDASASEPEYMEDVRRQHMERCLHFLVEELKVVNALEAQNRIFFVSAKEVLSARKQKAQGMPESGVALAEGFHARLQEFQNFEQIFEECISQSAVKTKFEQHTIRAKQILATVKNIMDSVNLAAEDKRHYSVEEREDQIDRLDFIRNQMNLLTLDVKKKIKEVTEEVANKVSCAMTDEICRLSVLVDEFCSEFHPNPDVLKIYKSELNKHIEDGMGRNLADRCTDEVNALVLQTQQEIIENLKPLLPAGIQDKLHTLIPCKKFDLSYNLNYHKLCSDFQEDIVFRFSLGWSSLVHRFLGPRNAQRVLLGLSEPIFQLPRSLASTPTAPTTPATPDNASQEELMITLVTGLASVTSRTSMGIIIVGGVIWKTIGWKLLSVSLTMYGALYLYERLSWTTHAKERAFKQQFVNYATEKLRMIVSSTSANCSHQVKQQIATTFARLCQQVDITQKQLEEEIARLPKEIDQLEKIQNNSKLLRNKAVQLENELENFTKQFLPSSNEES
UniProt Q9BTE3: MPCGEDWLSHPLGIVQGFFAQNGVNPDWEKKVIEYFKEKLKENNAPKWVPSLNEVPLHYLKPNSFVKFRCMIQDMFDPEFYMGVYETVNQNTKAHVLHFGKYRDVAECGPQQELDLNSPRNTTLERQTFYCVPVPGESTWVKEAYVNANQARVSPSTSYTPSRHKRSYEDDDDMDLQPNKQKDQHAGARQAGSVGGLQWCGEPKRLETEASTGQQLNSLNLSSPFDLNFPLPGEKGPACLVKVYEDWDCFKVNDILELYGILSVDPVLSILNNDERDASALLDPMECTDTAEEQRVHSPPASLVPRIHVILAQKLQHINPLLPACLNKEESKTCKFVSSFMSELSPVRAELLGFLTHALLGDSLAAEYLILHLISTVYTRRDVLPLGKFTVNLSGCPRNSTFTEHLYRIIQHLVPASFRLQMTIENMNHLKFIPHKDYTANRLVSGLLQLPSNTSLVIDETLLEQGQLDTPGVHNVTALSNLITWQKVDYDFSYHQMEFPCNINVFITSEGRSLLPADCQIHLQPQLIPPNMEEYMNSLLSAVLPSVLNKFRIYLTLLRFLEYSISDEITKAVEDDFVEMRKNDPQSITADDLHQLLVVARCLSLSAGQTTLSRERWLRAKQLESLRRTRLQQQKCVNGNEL
UniProt Q9H944: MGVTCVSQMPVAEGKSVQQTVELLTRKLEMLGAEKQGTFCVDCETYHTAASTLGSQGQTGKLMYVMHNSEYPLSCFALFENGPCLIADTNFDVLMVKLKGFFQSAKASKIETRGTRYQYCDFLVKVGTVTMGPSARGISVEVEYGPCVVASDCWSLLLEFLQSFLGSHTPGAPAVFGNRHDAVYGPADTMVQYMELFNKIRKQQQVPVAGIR
UniProt P23368: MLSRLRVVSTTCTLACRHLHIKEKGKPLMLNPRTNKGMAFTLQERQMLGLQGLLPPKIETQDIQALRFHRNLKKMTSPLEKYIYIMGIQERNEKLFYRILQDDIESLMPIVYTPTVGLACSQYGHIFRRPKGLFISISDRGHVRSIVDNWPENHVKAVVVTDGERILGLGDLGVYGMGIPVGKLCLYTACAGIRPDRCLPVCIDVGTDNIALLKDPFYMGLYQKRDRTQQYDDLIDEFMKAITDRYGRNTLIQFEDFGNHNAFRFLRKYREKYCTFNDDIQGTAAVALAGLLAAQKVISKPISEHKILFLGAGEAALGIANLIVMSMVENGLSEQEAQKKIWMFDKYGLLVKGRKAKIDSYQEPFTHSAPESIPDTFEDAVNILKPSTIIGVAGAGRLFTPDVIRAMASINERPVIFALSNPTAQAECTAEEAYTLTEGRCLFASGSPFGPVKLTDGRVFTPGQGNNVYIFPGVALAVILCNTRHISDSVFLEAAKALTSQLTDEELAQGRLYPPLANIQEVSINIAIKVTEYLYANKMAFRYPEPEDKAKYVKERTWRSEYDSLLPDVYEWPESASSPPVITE
UniProt Q9ULK4: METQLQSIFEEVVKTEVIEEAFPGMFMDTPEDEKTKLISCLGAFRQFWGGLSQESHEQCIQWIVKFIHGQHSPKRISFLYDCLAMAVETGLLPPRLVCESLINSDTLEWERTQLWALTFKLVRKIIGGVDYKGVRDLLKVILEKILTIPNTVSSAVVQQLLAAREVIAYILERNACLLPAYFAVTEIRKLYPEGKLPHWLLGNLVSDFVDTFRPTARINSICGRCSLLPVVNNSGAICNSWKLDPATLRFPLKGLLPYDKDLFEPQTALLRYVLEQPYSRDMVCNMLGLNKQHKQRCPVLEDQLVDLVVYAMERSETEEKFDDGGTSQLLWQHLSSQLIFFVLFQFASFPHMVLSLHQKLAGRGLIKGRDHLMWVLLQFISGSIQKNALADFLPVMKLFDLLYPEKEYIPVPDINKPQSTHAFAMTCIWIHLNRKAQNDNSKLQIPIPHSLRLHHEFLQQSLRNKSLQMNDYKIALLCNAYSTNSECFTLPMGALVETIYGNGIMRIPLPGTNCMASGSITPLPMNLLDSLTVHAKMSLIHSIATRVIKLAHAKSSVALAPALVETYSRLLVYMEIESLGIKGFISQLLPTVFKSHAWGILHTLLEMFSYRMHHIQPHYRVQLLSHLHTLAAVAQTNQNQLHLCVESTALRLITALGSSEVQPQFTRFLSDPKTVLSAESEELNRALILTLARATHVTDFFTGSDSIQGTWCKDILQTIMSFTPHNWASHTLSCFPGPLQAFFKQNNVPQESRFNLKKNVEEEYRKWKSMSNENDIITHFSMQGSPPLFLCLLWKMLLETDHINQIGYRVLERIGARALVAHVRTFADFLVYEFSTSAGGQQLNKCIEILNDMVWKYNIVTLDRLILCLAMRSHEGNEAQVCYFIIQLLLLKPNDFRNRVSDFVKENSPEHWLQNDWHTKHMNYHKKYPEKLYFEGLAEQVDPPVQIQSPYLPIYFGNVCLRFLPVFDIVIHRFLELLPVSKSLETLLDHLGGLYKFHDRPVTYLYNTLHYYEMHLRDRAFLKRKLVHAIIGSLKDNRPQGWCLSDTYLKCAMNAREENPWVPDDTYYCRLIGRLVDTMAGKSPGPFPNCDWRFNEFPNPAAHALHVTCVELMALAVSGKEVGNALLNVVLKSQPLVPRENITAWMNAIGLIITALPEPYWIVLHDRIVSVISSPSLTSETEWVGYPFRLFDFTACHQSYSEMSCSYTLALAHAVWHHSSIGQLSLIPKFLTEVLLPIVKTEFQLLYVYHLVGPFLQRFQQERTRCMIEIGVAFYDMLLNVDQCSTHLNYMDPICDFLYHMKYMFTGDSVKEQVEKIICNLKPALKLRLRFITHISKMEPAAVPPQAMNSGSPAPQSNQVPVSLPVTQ
UniProt P49736, whole entry, looked up: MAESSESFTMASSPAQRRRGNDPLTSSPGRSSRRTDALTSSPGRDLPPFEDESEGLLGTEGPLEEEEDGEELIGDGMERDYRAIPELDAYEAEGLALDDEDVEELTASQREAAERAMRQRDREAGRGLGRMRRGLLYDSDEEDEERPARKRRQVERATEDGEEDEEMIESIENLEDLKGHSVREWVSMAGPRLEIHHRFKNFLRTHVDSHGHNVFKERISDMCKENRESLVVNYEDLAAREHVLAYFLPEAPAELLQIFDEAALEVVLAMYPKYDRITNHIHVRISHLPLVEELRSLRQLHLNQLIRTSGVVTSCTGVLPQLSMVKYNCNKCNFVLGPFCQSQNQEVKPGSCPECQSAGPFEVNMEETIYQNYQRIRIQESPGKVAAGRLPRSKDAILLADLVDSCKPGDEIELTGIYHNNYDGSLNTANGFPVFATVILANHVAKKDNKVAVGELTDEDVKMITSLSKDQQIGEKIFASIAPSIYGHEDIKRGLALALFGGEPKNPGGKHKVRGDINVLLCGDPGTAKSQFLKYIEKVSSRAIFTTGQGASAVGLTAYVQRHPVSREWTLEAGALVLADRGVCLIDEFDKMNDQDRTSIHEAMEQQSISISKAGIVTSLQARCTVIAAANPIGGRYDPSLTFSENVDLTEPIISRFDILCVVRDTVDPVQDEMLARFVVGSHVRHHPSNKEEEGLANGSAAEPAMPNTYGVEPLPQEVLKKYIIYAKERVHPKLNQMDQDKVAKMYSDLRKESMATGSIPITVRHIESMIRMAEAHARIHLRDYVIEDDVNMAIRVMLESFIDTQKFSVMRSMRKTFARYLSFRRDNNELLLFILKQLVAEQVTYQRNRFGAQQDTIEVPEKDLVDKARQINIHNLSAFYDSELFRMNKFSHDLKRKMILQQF
UniProt Q9HCE5: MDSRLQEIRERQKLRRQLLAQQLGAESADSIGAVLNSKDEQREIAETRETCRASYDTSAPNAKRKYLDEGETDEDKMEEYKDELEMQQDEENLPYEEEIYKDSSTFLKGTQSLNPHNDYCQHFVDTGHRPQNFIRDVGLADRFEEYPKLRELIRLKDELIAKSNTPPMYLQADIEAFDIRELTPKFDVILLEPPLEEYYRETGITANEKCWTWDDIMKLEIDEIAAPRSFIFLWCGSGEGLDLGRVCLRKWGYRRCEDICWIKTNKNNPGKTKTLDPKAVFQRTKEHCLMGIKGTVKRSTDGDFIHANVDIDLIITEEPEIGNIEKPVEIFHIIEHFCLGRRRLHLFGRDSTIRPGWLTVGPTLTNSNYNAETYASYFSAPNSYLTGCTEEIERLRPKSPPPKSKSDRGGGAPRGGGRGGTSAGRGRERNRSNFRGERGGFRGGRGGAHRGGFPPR
UniProt Q96HR3: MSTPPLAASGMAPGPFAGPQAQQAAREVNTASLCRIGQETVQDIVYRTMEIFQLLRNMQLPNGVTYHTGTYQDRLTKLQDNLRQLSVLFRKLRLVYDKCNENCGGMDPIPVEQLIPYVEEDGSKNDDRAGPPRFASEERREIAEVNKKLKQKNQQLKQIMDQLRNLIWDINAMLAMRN

How the values were obtained:
Assay in all cases: log2 fold change, soluble protein after heating vs DMSO (PISA); higher = thermal stabilisation; K562 lysate, 10 uM; active = over 0.2 and 3.5 SD of the protein, either way, in both replicates (recomputed)
[1] = compound: C1=CC=C(C=C1)[C@H](COC2=CC3=C(C=C2)NC(=O)N3)NC(=O)C4=CC=CN(C4=O)CC5=CC(=C(C=C5)F)F
In short: (§1)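 K562 pellets were dounce-homogenised in PBS pH 7.4 containing 1 mM MgCl2, and the crude extract, at 1 mg/mL protein, was exposed to 10 μM compound for 30 min. Aliquots were heated for 3 min across 48°C-58°C, pooled, brought to 0.5% NP-40 at 4°C and spun at 21,000xg for 90 min, with the supernatant taken as soluble protein. TMTpro 16plex LC-MS/MS with equalised channel sums quantified that protein. Values are log-two fold changes in thermal stability relative to solvent controls, taken from duplicates.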

[2] = compound: CC1=C(SC2=C1C(=N[C@H](C3=NN=C(N32)C)CC(=O)N)C4=CC=C(C=C4)Cl)C
In short: as §1

[3] = compound: CC1=C2C(=CC=C1)N=C(N(C2=O)C3=CC=CC=C3C)CN4C=NC5=C(N=CN=C54)N
In short: as §1

[4] = compound: Cc1sc2c(c1C)C(c1ccc(Cl)cc1)=N[C@@H](CC(=O)OC(C)(C)C)c1nnc(C)n1-2
In short: as §1

[5] = compound: c1ccc([C@@H]2C[C@H]2NC2CCNCC2)cc1
In short: as §1

Measured: log2 fold change

ME1 (UniProt P48163)
inactive: [1] 0.009 | [2] 0.032 | [3] -0.009 | [4] -0.007 | [5] -0.002

MCU (UniProt Q8NE86)
inactive: [1] 0.021 | [2] 0.028 | [3] -0.031 | [4] -0.023 | [5] 0.015

MCTS1 isoform 3 (UniProt Q9ULC4)
inactive: [1] 0.022 | [2] 0.019 | [3] -0.014 | [4] 0.031 | [5] 0.001

METTL25 (UniProt Q8N6Q8)
inactive: [1] 0.08 | [2] 0.031 | [3] -0.047 | [4] 0.014

MED8 isoform 2 (UniProt Q96G25)
inactive: [1] -0.047 | [2] -0.033 | [3] -0.048 | [4] -0.039 | [5] 0.063

MFGE8 (UniProt Q08431)
inactive: [1] 0.012 | [2] 0.024 | [3] 0.006 | [4] 0.1 | [5] -0.071

MFN1 (UniProt Q8IWA4)
inactive: [1] -0.097 | [2] 0.073 | [3] 0.004 | [4] 0.005 | [5] -0.077

METTL26 (UniProt Q96S19)
inactive: [1] -0.046 | [2] 0.001 | [3] 0.062 | [4] -0.004 | [5] -0.053

MFF isoform 2 (UniProt Q9GZY8)
inactive: [1] 0.044 | [2] -0.029 | [3] -0.009 | [4] -0.049 | [5] -0.125

MCMBP isoform 2 (UniProt Q9BTE3)
inactive: [1] 0.045 | [2] 0.02 | [3] 0.007 | [4] 0.018

MCM3AP (UniProt O60318)
inactive: [1] -0.043 | [2] -0.006 | [3] -0.021 | [4] 0.021 | [5] 0.112

MED20 (UniProt Q9H944)
inactive: [1] -0.013 | [2] -0.023 | [3] -0.055 | [4] 0.044 | [5] 0.012

MEF2A (UniProt Q02078)
inactive: [1] 0.015 | [2] 0.067 | [3] 0.035 | [4] -0.023 | [5] -0.035

ME2 (UniProt P23368)
inactive: [1] -0.011 | [2] 0.036 | [3] 0.004 | [4] 0.071 | [5] -0.009

MEAF6 isoform 3 (UniProt Q9HAF1)
inactive: [1] 0.048 | [2] 0.039 | [3] 0.008 | [4] 0.034 | [5] -0.125

MED23 (UniProt Q9ULK4)
inactive: [1] -0.013 | [2] 0.011 | [3] -0.013 | [4] -0.016 | [5] 0.048

MCM2 (UniProt P49736)
inactive: [1] -0.011 | [2] 0.022 | [3] 0.028 | [4] -0.004 | [5] -0.004

MED14 (UniProt O60244)
inactive: [1] -0.037 | [2] 0.035 | [3] 0.034 | [4] -0.029 | [5] 0

METTL14 (UniProt Q9HCE5)
inactive: [1] 0.019 | [2] 0.003 | [3] -0.002 | [4] 0.028 | [5] 0.024

MED24 (UniProt O75448)
inactive: [1] -0.024 | [2] -0.027 | [3] 0.031 | [4] 0.019 | [5] -0.007

MCRIP1 (UniProt I3L4Q0)
inactive: [1] 0.031 | [2] -0.11 | [3] -0.027 | [4] -0.052 | [5] 0.022

Seven consecutive records out of the list so far, quoted:
MEF2A (UniProt Q02078)
inactive: [1] 0.015 | [2] 0.067 | [3] 0.035 | [4] -0.023 | [5] -0.035

ME2 (UniProt P23368)
inactive: [1] -0.011 | [2] 0.036 | [3] 0.004 | [4] 0.071 | [5] -0.009

MEAF6 isoform 3 (UniProt Q9HAF1)
inactive: [1] 0.048 | [2] 0.039 | [3] 0.008 | [4] 0.034 | [5] -0.125

MED23 (UniProt Q9ULK4)
inactive: [1] -0.013 | [2] 0.011 | [3] -0.013 | [4] -0.016 | [5] 0.048

MCM2 (UniProt P49736)
inactive: [1] -0.011 | [2] 0.022 | [3] 0.028 | [4] -0.004 | [5] -0.004

MED14 (UniProt O60244)
inactive: [1] -0.037 | [2] 0.035 | [3] 0.034 | [4] -0.029 | [5] 0

METTL14 (UniProt Q9HCE5)
inactive: [1] 0.019 | [2] 0.003 | [3] -0.002 | [4] 0.028 | [5] 0.024

(continued)

MBIP (UniProt Q9NS73)
inactive: [1] 0.13 | [2] -0.042 | [3] 0.023 | [4] -0.086 | [5] 0.016

MBD2 (UniProt Q9UBB5)
inactive: [1] 0.042 | [2] 0.008 | [3] -0.028 | [4] 0.065 | [5] 0.027

MED30 (UniProt Q96HR3)
inactive: [1] 0.061 | [2] -0.103 | [3] 0.01 | [4] -0.022 | [5] -0.016
